For at least one entry, the source does not settle the construct or the ends of the probe. At least one result comes from cells or an extract, where the contact may be indirect. For some of these results: No signal at the amounts used counts as a negative. For some of these results: At least one verdict rests on a figure or table, not on a statement of the authors. Tags and fusion partners may be left off the protein sequences shown.

Four sequences from publication PMC8758767 can be followed below.

Data set [1] concerns the target T1, Nrf2 (UniProt Q16236).
T1 sequence (looked up, limits assumed): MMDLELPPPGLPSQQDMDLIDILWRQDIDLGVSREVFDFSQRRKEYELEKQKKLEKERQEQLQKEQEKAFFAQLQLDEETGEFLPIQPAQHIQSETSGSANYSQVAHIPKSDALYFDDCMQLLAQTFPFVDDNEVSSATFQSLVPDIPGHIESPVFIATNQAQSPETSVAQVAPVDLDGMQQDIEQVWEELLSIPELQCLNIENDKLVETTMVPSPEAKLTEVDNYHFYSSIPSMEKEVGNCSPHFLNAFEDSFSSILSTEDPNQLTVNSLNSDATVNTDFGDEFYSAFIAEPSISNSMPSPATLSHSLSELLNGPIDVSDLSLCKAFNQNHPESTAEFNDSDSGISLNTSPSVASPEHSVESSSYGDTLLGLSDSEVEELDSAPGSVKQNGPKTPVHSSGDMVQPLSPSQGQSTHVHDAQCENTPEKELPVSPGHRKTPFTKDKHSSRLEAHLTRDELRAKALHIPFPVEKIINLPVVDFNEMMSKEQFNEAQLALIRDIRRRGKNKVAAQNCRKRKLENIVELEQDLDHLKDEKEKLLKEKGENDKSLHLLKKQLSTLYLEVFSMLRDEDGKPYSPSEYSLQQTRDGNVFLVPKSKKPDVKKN
The data set is described as follows: EMSA. The conditions noted are these: 10 ug nuclear extract, 100,000 cpm 32P probe, 4% polyacrylamide gel; supershift with 2 ug antibody at 4 C for 2 h; salt and pH not given; protein in an extract; label: 5'-32P.

Data set [2] concerns the target T1, Nrf2. The data set is described as follows: EMSA supershift. The conditions noted are these: anti-Nrf2 antibody, self-competed by cold ARE1; 10 ug nuclear extract, 100,000 cpm 32P probe, 4% polyacrylamide gel; supershift with 2 ug antibody at 4 C for 2 h; salt and pH not given; protein in an extract; label: 5'-32P.

Take “GACTAAGCCATGATAGTGCCACTGCACTCC (double strand) [HBXIP ARE2]”: the binding result with Nrf2 [1] is recorded as “no binding”.

Consider “CTAGGCGTGAGAGATCAGCCTGTAATCACA (double strand) [HBXIP ARE1mut]”, for which the binding result in the data set with Nrf2 [1] is “no binding”.

With “CTAGGCGTGGTGACTCAGCCTGTAATCACA (double strand) [HBXIP ARE1]”, in the data set with Nrf2 [2], the binding result is reported as “binds”.

For “GCAGTGAGCTGAGACGGCGCCACTGCACTC (double strand) [HBXIP ARE3]”, the binding result with Nrf2 [1] is listed as “no binding”.
